The record followed here is patent publication US20210253711A1.

Test [1] deals with T1, Recombinant MICB protein (UniProt Q29980).
T1 sequence (looked up): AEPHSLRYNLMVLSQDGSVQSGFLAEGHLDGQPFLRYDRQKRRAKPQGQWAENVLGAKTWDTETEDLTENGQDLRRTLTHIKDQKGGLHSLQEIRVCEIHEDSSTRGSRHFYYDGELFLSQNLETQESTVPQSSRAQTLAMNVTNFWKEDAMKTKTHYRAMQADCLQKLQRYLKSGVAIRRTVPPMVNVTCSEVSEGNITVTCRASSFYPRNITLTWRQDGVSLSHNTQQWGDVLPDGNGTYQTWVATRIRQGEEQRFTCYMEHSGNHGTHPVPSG
Briefly: ELISA, antigen coated on the plate. (ELISA stands for enzyme-linked immunosorbent assay.)

Test [2] concerns the target T1, Recombinant MICB protein. Briefly: ELISA, coated MICB (100 ng/well), goat anti-mouse IgG-HRP, OD 450 nm.

These are yes or no findings as the source states them, for the method shown. Some entries that bind do so weakly or less than the wild type.

B1: 16F10.C12 (antibody, V domains shown)
VH: EVQLQESGPGLVAPSQSLSITCTVSGFSLTAFGVNWVRQPPGKGLEWLGMIWGDGNTDYNSTLRSRLSISKDNSKSQVFLKLNSLQTDDTARYFCARETYYGNYAGLGYWGQGTLVTVSA
VL: QIVLTQSPAIMSASIGERVTMTCTASSSVSSNYLHWYQQKPRSSPKLWIYTTSNLASGVPTRFSGSGSGTSYSLTISSMEAEDAATYYCHQFHRSPFTFGSGTKLEIK
Turning to B1, the binding entry with Recombinant MICB protein [1] and with Recombinant MICB protein [2] was “binds” in each case.

B2: 3F9.E4 (antibody, V domains shown)
VH: EVQLQESGEGLVKPGGSLKLSCAASGFTFSNYAMSWVRQTPEKRLEWVAYISPGGDYIYYADTVKGRFTISRDNARNTLYLQMSSLKSEDTAMYYCTTDRRHYGSYAMDYWGQGISVTVSS
VL: DIVMTQAAPSVPVTPGESVSISCRSSKSLLHSNGNTYLYWFLQRPGQSPQLLIYRMSNLASGVPDRFSGSGSGTAFTLRISRVEAEDVGVYYCMQHLEYPFTFGSGTKLEIK
For B2, the binding result in the test with Recombinant MICB protein [1] and with Recombinant MICB protein [2] was “binds” in each case.
